Test results reported in the supplement of paper PMC10849652.
The other results are listed elsewhere or left out.

Protein sequences, listed by entry. Tags and fused reporters are not part of them. Lines headed by an entry give the natural chain unless they say otherwise; changes in a name come on top.
UniProt P98171: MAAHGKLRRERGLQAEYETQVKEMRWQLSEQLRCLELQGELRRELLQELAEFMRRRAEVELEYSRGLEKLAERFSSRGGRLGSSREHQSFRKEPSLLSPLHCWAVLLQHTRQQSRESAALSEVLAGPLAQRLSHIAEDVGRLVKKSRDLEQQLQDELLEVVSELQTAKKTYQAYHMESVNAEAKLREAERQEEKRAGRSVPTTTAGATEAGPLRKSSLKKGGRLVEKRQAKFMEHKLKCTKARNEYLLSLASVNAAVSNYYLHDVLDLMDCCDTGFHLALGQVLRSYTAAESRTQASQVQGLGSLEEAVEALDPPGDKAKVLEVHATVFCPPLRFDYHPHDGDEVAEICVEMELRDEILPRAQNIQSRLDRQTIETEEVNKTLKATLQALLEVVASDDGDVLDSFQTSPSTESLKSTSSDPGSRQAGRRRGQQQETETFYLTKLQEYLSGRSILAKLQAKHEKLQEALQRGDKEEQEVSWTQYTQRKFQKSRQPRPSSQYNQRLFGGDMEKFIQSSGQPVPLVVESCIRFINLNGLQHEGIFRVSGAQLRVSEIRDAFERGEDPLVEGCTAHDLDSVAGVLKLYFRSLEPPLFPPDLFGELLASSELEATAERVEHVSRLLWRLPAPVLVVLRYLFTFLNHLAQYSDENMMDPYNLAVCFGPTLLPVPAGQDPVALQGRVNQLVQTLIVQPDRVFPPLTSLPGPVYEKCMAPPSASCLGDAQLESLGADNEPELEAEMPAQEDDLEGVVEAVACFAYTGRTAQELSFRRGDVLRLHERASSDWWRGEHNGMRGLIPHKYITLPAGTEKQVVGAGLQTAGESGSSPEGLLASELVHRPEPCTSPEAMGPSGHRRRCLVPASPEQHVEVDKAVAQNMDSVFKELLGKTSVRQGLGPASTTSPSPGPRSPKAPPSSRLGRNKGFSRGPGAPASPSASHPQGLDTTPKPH
UniProt O43299: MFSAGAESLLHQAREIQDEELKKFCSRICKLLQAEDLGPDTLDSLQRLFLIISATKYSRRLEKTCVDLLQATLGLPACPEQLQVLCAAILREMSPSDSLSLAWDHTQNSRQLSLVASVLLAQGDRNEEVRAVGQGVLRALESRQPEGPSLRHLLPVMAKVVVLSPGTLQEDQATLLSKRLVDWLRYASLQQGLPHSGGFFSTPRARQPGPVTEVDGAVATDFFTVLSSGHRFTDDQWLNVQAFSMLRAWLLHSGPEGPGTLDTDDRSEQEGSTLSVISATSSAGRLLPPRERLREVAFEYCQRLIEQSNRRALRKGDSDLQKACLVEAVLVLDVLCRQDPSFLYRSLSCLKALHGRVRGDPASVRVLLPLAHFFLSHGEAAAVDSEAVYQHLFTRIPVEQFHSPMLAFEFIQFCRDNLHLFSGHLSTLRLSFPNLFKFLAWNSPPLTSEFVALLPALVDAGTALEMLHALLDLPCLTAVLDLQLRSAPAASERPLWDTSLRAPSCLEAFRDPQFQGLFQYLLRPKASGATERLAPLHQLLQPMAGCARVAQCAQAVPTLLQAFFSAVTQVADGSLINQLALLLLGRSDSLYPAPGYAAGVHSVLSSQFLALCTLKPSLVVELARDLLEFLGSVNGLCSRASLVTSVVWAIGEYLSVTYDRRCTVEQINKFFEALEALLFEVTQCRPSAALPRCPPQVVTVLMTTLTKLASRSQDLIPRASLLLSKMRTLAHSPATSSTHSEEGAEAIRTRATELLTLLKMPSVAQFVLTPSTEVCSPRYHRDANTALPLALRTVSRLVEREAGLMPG
UniProt P02749: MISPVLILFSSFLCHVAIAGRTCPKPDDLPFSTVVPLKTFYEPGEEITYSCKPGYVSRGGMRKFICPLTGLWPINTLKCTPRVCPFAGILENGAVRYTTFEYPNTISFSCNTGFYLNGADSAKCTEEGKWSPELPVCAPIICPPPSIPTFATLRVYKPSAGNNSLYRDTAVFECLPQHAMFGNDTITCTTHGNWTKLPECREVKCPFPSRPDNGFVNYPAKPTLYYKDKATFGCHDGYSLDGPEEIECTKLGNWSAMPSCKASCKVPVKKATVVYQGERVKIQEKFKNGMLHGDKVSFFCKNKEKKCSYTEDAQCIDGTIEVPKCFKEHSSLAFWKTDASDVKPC
UniProt Q4KMQ2: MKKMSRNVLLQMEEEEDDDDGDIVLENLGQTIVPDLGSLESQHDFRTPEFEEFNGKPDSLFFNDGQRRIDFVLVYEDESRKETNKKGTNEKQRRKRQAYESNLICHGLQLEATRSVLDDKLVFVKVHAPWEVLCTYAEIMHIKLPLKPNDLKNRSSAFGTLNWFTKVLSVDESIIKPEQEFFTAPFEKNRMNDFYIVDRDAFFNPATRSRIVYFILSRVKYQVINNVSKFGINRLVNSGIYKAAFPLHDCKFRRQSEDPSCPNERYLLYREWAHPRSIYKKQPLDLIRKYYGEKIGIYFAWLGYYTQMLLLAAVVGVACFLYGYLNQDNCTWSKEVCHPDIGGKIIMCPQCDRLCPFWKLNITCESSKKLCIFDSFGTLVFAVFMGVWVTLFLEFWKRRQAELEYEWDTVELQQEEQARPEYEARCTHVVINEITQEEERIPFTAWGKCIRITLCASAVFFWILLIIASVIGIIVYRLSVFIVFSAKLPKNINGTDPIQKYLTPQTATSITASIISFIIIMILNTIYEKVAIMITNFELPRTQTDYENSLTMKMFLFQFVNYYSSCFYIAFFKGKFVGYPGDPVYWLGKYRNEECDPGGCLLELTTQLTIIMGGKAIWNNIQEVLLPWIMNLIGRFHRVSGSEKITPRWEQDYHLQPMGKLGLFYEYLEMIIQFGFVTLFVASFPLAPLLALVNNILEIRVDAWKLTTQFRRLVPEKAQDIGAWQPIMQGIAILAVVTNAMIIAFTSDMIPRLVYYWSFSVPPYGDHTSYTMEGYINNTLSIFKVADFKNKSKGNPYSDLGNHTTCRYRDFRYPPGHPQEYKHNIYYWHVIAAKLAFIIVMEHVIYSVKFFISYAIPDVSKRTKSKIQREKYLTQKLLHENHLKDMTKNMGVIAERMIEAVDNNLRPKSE
UniProt Q8IV38: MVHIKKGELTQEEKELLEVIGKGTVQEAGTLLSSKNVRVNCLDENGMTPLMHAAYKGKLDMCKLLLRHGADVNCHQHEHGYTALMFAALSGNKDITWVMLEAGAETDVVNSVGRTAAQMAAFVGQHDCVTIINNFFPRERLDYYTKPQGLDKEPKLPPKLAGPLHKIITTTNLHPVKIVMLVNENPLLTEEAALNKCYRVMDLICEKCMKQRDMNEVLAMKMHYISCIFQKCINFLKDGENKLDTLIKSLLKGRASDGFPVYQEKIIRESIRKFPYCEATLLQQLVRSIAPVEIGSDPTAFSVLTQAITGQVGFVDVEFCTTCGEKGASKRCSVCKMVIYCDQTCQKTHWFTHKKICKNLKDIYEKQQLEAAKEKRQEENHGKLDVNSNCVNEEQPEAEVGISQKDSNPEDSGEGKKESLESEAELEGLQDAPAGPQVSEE
UniProt Q13795: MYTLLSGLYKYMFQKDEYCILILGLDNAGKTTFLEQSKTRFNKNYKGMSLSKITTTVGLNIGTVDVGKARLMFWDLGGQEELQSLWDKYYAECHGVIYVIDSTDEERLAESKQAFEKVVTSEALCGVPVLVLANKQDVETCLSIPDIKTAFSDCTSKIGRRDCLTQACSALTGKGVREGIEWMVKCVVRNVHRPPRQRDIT
UniProt Q9BZZ5: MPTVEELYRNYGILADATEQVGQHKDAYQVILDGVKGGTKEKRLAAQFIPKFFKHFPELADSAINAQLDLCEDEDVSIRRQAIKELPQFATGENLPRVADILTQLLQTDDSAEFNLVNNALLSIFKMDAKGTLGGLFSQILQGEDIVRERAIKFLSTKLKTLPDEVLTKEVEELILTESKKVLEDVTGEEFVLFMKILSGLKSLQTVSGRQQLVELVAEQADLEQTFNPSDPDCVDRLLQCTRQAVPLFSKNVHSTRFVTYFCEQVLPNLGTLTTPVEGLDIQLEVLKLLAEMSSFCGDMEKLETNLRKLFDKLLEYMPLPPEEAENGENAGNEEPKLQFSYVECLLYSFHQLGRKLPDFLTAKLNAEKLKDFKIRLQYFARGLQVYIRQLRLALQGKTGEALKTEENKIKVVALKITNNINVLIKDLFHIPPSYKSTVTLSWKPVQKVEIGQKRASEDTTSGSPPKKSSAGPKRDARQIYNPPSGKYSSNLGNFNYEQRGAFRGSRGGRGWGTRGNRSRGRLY
UniProt Q9HDC9: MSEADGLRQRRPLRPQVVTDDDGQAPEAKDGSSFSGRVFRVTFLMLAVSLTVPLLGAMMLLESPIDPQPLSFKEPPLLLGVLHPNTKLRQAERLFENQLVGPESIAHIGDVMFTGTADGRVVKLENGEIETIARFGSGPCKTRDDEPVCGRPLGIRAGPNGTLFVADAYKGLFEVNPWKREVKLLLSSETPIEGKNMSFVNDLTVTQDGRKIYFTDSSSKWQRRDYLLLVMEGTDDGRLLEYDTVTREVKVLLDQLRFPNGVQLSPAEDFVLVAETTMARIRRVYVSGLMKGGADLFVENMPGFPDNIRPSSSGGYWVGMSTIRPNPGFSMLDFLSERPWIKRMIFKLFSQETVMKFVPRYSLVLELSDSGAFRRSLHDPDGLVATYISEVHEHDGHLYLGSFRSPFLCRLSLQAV
UniProt P52565: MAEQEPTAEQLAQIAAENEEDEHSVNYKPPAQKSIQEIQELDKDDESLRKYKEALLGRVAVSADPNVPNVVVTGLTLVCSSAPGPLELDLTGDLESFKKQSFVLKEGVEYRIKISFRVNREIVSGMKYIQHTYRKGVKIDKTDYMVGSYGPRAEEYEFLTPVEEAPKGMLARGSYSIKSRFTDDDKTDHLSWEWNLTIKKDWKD
UniProt P61204: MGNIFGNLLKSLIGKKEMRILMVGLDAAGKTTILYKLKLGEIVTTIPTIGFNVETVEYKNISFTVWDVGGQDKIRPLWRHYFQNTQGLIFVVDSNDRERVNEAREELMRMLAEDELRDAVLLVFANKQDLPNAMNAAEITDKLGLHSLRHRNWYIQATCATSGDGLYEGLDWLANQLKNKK
UniProt P09525: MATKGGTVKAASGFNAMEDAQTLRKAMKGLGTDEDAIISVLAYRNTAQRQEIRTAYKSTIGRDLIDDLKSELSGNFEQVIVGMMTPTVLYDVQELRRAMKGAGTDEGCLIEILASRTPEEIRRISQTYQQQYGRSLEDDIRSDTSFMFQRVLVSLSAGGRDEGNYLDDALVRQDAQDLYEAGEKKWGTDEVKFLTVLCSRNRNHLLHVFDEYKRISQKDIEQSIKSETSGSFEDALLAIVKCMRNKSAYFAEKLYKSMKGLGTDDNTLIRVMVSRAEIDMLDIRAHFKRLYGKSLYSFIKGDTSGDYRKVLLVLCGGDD
UniProt Q10567: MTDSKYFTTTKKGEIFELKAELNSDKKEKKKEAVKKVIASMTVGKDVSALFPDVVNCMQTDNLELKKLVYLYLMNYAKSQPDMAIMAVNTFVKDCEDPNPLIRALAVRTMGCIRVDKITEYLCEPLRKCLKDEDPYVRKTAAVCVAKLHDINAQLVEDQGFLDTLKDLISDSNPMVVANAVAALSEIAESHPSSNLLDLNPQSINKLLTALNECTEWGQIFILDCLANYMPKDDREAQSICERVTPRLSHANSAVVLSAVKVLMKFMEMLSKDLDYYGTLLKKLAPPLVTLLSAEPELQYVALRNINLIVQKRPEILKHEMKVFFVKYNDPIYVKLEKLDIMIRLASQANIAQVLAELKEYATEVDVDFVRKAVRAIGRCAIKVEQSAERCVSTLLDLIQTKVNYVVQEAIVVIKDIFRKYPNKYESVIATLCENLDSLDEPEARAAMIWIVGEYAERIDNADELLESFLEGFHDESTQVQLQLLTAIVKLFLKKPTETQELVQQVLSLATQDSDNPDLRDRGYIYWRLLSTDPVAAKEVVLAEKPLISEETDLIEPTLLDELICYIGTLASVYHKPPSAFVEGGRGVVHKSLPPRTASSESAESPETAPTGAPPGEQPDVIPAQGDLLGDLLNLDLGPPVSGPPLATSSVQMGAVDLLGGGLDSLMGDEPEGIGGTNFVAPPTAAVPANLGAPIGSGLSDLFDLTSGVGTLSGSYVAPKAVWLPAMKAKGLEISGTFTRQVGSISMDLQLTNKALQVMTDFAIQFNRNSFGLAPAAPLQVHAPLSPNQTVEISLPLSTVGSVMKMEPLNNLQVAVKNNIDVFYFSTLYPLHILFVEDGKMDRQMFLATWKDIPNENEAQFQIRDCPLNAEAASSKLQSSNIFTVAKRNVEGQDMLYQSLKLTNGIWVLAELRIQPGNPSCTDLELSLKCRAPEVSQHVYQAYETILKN
UniProt Q9NWB6: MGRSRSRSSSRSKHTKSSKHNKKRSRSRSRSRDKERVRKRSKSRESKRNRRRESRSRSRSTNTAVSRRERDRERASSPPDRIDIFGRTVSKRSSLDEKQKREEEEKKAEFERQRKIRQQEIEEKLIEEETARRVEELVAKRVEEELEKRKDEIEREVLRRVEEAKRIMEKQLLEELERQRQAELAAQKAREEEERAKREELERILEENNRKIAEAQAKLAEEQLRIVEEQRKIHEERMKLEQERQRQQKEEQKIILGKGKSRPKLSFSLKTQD
UniProt P02654: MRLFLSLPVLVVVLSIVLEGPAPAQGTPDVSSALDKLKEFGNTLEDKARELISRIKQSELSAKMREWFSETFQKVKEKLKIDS

Legend:
Assay in all cases: log2 fold change, soluble protein after heating vs DMSO (PISA); higher = thermal stabilisation; K562 cells, 10 uM, 30 min; active = over 0.2 and 3.5 SD of the protein, either way, in both replicates (recomputed)
[1] = compound: C1=CC=C(C=C1)[C@H](COC2=CC3=C(C=C2)NC(=O)N3)NC(=O)C4=CC=CN(C4=O)CC5=CC(=C(C=C5)F)F
Outline: (§1)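 Thermal stability values are relative to control samples and come from duplicates. They are expressed as log2 fold changes. For measurement, K562 cells (2×10^6 cells/mL) received 10 μM compound for 30 min, and aliquots were heated for 3 min over 48°C-58°C, pooled, and extracted at 4°C in PBS with 0.5% NP-40. Soluble protein, the supernatant after 21,000xg for 90 min, was quantified by TMTpro 16plex LC-MS/MS with equalised channel sums.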

[2] = compound: CC1=C(SC2=C1C(=N[C@H](C3=NN=C(N32)C)CC(=O)N)C4=CC=C(C=C4)Cl)C
Outline: as §1

[3] = compound: CC1=C2C(=CC=C1)N=C(N(C2=O)C3=CC=CC=C3C)CN4C=NC5=C(N=CN=C54)N
Outline: as §1

[4] = compound: Cc1sc2c(c1C)C(c1ccc(Cl)cc1)=N[C@@H](CC(=O)OC(C)(C)C)c1nnc(C)n1-2
Outline: as §1

[5] = compound: c1ccc([C@@H]2C[C@H]2NC2CCNCC2)cc1
Outline: as §1

Measured: log2 fold change

ARHGAP4 isoform 2 (UniProt P98171)
inactive: [1] 0.211 | [2] -0.101 | [3] -0.069 | [4] -0.122 | [5] 0.008

APOBEC3D (UniProt Q96AK3)
inactive: [1] 0.096 | [2] -0.09 | [3] -0.221 | [4] 0.022 | [5] 0.005

ARHGAP18 (UniProt Q8N392)
inactive: [1] -0.1 | [2] -0.038 | [3] 0.173 | [4] 0.03 | [5] 0.027

ARID1B isoform 3 (UniProt Q8NFD5)
inactive: [1] -0.053

AP5Z1 (UniProt O43299)
inactive: [1] 0.111 | [2] 0.075 | [3] 0.113 | [4] 0.1 | [5] -0.073

ANK3 (UniProt Q12955)
inactive: [1] 0.064 | [2] 0.051 | [3] -0.021 | [4] 0.032 | [5] 0.025

APOO (UniProt Q9BUR5)
inactive: [1] 0.023 | [2] -0.034 | [3] 0.068 | [4] -0.028 | [5] 0.076

ARFGAP3 (UniProt Q9NP61)
inactive: [1] -0.024 | [2] 0.041 | [3] 0.119 | [4] -0.06 | [5] 0

AP2M1 (UniProt Q96CW1)
inactive: [1] -0.005 | [2] 0.03 | [3] -0.013 | [4] 0.006 | [5] 0.009

APOH (UniProt P02749)
inactive: [1] -0.265 | [2] -0.106 | [3] 0.073 | [4] -0.051 | [5] 0.199

ANO6 isoform 2 (UniProt Q4KMQ2)
inactive: [1] -0.015 | [2] 0.015 | [3] 0.023 | [4] -0.031 | [5] 0.014

ANKMY2 (UniProt Q8IV38)
inactive: [1] -0.034 | [2] 0.028 | [3] 0.087 | [4] -0.021 | [5] -0.031

ANXA3 (UniProt P12429)
inactive: [1] -0.009 | [2] 0.067 | [3] 0.025 | [4] -0.013 | [5] -0.015

ANKHD1 isoform 6 (UniProt Q8IWZ3)
inactive: [1] -0.018 | [2] -0.071 | [3] 0 | [4] 0.086 | [5] -0.001

AP3S1 (UniProt Q92572)
inactive: [1] 0.008 | [2] 0.026 | [3] 0.037 | [4] 0.037 | [5] -0.008

ARFGEF1 (UniProt Q9Y6D6)
inactive: [1] -0.012 | [2] 0.034 | [3] 0.014 | [4] -0.063 | [5] -0.061

ARFRP1 (UniProt Q13795)
inactive: [1] 0 | [2] -0.066 | [3] -0.03 | [4] -0.021 | [5] 0.029

API5 isoform 2 (UniProt Q9BZZ5)
inactive: [1] 0.011 | [2] 0.036 | [3] -0.012 | [4] -0.03 | [5] -0.052

ARHGAP25 isoform 4 (UniProt P42331)
inactive: [1] -0.181 | [2] -0.171 | [3] -0.173 | [4] -0.018 | [5] 0.109

2 records drawn at random from the list so far:
ANO6 isoform 2 (UniProt Q4KMQ2)
inactive: [1] -0.015 | [2] 0.015 | [3] 0.023 | [4] -0.031 | [5] 0.014

ANKHD1 isoform 6 (UniProt Q8IWZ3)
inactive: [1] -0.018 | [2] -0.071 | [3] 0 | [4] 0.086 | [5] -0.001

Carrying on.

ARF1 (UniProt P84077)
inactive: [1] 0.131 | [2] 0.024 | [3] 0.03 | [4] 0.123 | [5] 0.052

APIP (UniProt Q96GX9)
inactive: [1] -0.007 | [2] 0.011 | [3] 0.014 | [4] -0.008 | [5] 0.021

APOL2 (UniProt J3KQL8)
inactive: [1] -0.212 | [2] 0.032 | [3] 0.001 | [4] 0.012 | [5] -0.122

ARHGAP17 (UniProt Q68EM7)
inactive: [1] -0.061 | [2] -0.122 | [3] 0.167 | [4] -0.093 | [5] -0.155

ANKZF1 (UniProt Q9H8Y5)
inactive: [1] -0.113 | [2] -0.037 | [3] -0.01 | [4] 0.15 | [5] -0.008

APMAP (UniProt Q9HDC9)
inactive: [1] -0.002 | [2] 0.002 | [3] 0.028 | [4] -0.022 | [5] 0.011

ARHGDIA (UniProt P52565)
inactive: [1] -0.044 | [2] 0.034 | [3] 0.008 | [4] -0.075 | [5] -0.065

ANK2 (UniProt Q01484)
inactive: [1] -0.019 | [2] 0.058 | [3] 0.071 | [4] 0.159 | [5] 0.02

AP3M1 (UniProt Q9Y2T2)
inactive: [1] -0.051 | [2] 0.045 | [3] 0.036 | [4] -0.031 | [5] 0.016

ARHGAP1 (UniProt Q07960)
inactive: [1] -0.02 | [2] 0.023 | [3] 0.047 | [4] -0.005 | [5] 0.002

ARHGDIB (UniProt P52566)
inactive: [1] -0.005 | [2] 0.004 | [3] 0.072 | [4] 0.029 | [5] -0.094

ANKRD49 (UniProt Q8WVL7)
inactive: [1] 0.022 | [2] 0.002 | [3] 0.057 | [4] 0.003 | [5] 0.035

AP3B1 (UniProt O00203)
inactive: [1] -0.038 | [2] 0.034 | [3] 0.062 | [4] 0.001 | [5] -0.042

ARF3 (UniProt P61204)
inactive: [1] -0.002 | [2] 0.025 | [3] 0.019 | [4] -0.033 | [5] 0.008

ARHGAP12 (UniProt Q8IWW6)
inactive: [1] 0.171 | [2] 0.052 | [3] 0.086 | [4] -0.071 | [5] -0.139

AP4E1 (UniProt Q9UPM8)
inactive: [1] -0.258 | [2] 0.081 | [3] 0.106 | [4] -0.059 | [5] -0.18

ANTKMT (UniProt Q9BQD7)
inactive: [1] -0.032 | [2] 0.057 | [3] 0.026 | [4] -0.162 | [5] -0.127

ANXA4 (UniProt P09525)
inactive: [1] 0.04 | [2] 0.009 | [3] 0.126 | [4] 0.025 | [5] -0.019

ANKRD28 (UniProt O15084)
inactive: [1] -0.003 | [2] 0.053 | [3] 0.023 | [4] 0.004 | [5] -0.008

APOE (UniProt P02649)
inactive: [1] -0.038 | [2] 0.002 | [3] 0.069 | [4] 0.046 | [5] -0.028

ANAPC16 (UniProt Q96DE5)
inactive: [1] -0.032 | [2] 0.066 | [3] 0.05 | [4] -0.137 | [5] -0.026

ARHGEF1 isoform 3 (UniProt Q92888)
inactive: [1] -0.046 | [2] -0.048 | [3] 0.069 | [4] 0.081 | [5] 0.048

AP1B1 (UniProt Q10567)
inactive: [1] -0.004 | [2] 0.044 | [3] 0.019 | [4] 0.019 | [5] 0.001

ARF5 (UniProt P84085)
inactive: [1] 0.003 | [2] 0.03 | [3] 0.041 | [4] -0.024 | [5] -0.008

AP4B1 (UniProt Q9Y6B7)
inactive: [1] 0.018 | [2] -0.073 | [3] 0 | [4] 0.016 | [5] -0.086

AP1M1 (UniProt Q9BXS5)
inactive: [1] -0.013 | [2] 0.017 | [3] 0.027 | [4] 0.005 | [5] 0.011

AP3D1 isoform 5 (UniProt O14617)
inactive: [1] -0.05 | [2] -0.001 | [3] -0.017 | [4] 0.031 | [5] -0.037

AP2A2 isoform 2 (UniProt O94973)
inactive: [1] -0.021 | [2] -0.02 | [3] 0.04 | [4] 0.048 | [5] 0.028

APPL1 (UniProt Q9UKG1)
inactive: [1] -0.027 | [2] 0.122 | [3] 0.086 | [4] -0.025 | [5] -0.049

ARGLU1 (UniProt Q9NWB6)
inactive: [1] 0.072 | [2] -0.117 | [3] -0.013 | [4] 0.01 | [5] 0.096

APOC1 (UniProt P02654)
inactive: [1] -0.007 | [2] 0.185 | [3] -0.038 | [4] -0.061 | [5] 0.013

ARFGAP2 (UniProt Q8N6H7)
inactive: [1] -0.006 | [2] 0.039 | [3] 0.086 | [4] -0.033 | [5] 0.006

AP2A1 (UniProt O95782)
inactive: [1] -0.001 | [2] -0.021 | [3] -0.028 | [4] 0.047 | [5] -0.005

AP4S1 (UniProt Q9Y587)
inactive: [1] -0.077 | [2] 0.133 | [3] 0.069 | [5] 0
